# From publication PMC2577008, “The Transcriptional Repressor Protein NsrR Senses Nitric Oxide Directly via a [2Fe-2S] Cluster” (PLoS ONE, 2008)
# By UniProt entry, the sequences of proteins in these tests, tags left out. Where a name states a change or a piece, a line headed by the entry shows the natural chain unless it says otherwise.
# UniProt Q9L132: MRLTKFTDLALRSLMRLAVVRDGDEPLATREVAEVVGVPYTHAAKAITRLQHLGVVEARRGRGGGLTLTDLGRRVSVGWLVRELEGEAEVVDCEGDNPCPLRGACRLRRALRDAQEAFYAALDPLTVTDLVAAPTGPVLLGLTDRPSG
# Target: [2Fe-2S] NsrR (holo) (Streptomyces coelicolor) (UniProt Q9L132)
# Experiment: EMSA
# Settings: [2Fe-2S] cluster, no NO; EMSA: 10 mM Tris-HCl pH 7.5, 60 mM KCl, on ice 2 min, ~20 ng probe, NsrR diluted to 500 nM in 50 mM Tris pH 7.0 (legend: 50 mM Tris pH 7.0, 100 mM NaCl); recombinant protein; label: 35S-dATP Klenow fill-in; probe letters rebuilt from the primers and the genome; part of a longer molecule
row,Sequence,binding result
1,GACGGACCGCCCCTCGGGATGACGGGCGGCGGCCCCCTGAGGCCGTCGAGCTGTGGCCTAAAACACGAATATCATCTACCAATTAAGGAGTCGCTGTGCTCTCCGAACAGTCCGTTCCCGTGGTCCGAGCCACCCTCCCCGCCGTCGGAGCGGCCATCGGTGACATCGC (double strand) [hmpA1 promoter fragment],binds
2,TCCGGCCGCTGTCCGGTCTCACTGAGAAGACGGGCCGCACAGACGGTCCGTGGCACGTCGGAAAACAAGCATCTGAGATCCCAGTTCGGAGTAGGCATGCTCTCCAGTCAGTCGGCCCAGATCGTCCGCGACACGCTCCCCACCGTCGGAGCCTCGCTCGGCACGATC (double strand) [hmpA2 promoter fragment],binds

# Construct, isoform or probe ends are uncertain for at least one entry.
